Assay results reported in article PMC3134442.
Results are given in words; binding and its absence hold for the method and conditions named. In cells and extracts the contact can be indirect. Some entries that bind do so weakly or less than the wild type.

Chains of the proteins cited; added tags and fusions are not shown.
UniProt P14126: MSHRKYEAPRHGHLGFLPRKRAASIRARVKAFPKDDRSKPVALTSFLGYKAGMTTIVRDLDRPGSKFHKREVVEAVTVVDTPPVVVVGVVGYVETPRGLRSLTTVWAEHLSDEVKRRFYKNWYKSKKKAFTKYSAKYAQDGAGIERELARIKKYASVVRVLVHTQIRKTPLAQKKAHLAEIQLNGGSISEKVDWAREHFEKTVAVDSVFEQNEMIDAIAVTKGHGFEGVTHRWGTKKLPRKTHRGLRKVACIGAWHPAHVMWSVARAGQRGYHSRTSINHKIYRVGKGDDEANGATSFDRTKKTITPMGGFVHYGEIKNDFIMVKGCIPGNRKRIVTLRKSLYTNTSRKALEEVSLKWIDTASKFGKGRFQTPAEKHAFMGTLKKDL

Experiments:
Test in all cases: co-IP; TAP-tagged bait from cycloheximide-treated yeast lysate captured on IgG-coupled magnetic beads, 4°C, 2 h, 50 mM Hepes-KOH pH 7.5, 140 mM KCl, 10 mM MgCl2, NP-40; eluted with TEV protease; eluate immunoblotted (anti-Rpl3, anti-Egd2, anti-TAP)
Btt1-TAP (S. cerevisiae) = target: T1, Btt1-TAP (S. cerevisiae) (UniProt P40314)
T1 sequence: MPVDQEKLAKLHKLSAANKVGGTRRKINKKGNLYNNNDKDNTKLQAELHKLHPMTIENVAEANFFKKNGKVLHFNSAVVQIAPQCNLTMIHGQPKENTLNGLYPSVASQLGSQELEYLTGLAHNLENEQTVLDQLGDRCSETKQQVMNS

Egd1-TAP (S. cerevisiae) = target: T2, Egd1-TAP (S. cerevisiae) (UniProt Q02642)
T2 sequence: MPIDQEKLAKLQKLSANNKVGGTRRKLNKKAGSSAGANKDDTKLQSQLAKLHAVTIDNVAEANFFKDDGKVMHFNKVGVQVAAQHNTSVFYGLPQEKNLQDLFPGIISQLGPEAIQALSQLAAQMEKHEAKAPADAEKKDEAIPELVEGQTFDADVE

Egd2-TAP (S. cerevisiae) = target: T3, Egd2-TAP (S. cerevisiae) (UniProt P38879)
T3 sequence: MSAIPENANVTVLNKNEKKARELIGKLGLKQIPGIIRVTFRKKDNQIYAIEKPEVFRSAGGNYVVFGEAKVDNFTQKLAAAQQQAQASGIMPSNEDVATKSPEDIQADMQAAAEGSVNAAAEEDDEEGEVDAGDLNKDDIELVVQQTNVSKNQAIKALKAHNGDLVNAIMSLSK

[1] = target: T4, Srp54-TAP (S. cerevisiae) (UniProt P20424)
T4 sequence: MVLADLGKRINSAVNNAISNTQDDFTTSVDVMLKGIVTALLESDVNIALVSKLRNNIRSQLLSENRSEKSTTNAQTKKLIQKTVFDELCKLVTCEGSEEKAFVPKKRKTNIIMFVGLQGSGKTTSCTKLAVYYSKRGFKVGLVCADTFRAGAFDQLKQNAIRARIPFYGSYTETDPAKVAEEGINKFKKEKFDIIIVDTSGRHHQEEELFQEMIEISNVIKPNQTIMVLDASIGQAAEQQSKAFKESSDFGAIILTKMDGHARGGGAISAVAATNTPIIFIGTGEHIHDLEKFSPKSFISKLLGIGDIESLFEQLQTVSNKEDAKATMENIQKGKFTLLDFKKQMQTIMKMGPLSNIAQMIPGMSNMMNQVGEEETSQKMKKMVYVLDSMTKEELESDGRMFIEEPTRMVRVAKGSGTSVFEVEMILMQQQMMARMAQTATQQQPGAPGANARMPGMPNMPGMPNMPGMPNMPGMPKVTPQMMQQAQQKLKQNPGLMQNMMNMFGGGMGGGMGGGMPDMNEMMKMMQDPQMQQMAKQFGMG

[2] = target: T5, Srp68-TAP (S. cerevisiae) (UniProt P38687)
T5 sequence: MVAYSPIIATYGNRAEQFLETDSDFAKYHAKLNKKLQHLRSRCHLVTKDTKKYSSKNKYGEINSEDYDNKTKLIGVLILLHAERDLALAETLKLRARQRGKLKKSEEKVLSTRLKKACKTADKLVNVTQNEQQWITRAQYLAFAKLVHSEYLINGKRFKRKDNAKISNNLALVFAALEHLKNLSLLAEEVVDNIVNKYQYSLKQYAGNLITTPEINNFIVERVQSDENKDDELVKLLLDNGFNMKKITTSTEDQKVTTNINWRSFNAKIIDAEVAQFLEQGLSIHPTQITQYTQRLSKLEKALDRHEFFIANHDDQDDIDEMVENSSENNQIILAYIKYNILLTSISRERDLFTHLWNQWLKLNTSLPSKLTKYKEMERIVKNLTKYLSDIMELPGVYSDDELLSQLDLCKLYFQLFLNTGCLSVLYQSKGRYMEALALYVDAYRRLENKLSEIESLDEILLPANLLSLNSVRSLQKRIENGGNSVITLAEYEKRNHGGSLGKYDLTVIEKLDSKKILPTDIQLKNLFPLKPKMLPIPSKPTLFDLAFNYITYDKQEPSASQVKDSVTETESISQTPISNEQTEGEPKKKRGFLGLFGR

[3] = target: T6, Srp72-TAP (S. cerevisiae) (UniProt P38688)
T6 sequence: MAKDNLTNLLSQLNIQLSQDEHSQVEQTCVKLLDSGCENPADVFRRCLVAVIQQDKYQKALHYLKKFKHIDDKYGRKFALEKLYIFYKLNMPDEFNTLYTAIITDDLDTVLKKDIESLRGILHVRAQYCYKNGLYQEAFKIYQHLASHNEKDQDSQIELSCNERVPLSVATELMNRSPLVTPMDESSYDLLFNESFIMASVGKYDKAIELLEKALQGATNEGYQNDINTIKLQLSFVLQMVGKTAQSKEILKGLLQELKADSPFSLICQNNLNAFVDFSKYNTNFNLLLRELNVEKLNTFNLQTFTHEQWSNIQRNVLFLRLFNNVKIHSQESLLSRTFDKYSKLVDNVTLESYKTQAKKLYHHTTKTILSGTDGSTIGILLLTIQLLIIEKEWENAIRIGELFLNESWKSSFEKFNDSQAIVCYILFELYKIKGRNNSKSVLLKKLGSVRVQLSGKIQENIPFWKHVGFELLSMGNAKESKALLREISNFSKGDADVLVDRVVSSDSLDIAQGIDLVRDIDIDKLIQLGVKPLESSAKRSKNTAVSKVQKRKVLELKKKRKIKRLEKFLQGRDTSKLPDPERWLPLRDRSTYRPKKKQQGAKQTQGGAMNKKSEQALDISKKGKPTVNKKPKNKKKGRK

Measured: binding

ribosomal protein Rpl3 (from UniProt P14126 1-387)
binds: all assays above
